Measurements published in the supplement of paper PMC10849652.
Some of the results follow.

The chains behind the UniProt entries cited, without tags or fusion partners. Where a name states a change or a piece, a line headed by the entry shows the natural chain unless it says otherwise.
UniProt Q9UI14, whole entry, looked up: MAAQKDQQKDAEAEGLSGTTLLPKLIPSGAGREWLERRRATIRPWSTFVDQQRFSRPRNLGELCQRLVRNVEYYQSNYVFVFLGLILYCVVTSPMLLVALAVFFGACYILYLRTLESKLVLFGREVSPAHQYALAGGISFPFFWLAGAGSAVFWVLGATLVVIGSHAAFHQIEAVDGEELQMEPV
UniProt Q8N0T1: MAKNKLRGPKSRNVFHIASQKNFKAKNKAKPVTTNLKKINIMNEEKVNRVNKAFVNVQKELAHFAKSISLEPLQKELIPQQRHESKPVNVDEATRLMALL
UniProt Q5T160: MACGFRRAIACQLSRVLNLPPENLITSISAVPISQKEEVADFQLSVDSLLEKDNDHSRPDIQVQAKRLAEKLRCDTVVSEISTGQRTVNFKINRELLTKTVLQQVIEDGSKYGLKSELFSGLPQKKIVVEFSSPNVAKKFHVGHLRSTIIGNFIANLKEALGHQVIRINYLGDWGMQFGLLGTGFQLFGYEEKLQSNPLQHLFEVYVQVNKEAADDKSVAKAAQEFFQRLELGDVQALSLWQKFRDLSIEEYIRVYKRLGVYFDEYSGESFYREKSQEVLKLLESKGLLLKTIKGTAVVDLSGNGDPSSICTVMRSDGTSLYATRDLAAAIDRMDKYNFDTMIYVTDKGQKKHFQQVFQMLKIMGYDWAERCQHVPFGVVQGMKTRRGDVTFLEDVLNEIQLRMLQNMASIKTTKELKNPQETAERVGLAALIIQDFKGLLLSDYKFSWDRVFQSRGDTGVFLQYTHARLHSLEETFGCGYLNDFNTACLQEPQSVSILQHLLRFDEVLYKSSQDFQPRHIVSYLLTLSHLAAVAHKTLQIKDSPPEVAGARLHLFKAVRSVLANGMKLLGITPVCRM
UniProt Q9H2M9: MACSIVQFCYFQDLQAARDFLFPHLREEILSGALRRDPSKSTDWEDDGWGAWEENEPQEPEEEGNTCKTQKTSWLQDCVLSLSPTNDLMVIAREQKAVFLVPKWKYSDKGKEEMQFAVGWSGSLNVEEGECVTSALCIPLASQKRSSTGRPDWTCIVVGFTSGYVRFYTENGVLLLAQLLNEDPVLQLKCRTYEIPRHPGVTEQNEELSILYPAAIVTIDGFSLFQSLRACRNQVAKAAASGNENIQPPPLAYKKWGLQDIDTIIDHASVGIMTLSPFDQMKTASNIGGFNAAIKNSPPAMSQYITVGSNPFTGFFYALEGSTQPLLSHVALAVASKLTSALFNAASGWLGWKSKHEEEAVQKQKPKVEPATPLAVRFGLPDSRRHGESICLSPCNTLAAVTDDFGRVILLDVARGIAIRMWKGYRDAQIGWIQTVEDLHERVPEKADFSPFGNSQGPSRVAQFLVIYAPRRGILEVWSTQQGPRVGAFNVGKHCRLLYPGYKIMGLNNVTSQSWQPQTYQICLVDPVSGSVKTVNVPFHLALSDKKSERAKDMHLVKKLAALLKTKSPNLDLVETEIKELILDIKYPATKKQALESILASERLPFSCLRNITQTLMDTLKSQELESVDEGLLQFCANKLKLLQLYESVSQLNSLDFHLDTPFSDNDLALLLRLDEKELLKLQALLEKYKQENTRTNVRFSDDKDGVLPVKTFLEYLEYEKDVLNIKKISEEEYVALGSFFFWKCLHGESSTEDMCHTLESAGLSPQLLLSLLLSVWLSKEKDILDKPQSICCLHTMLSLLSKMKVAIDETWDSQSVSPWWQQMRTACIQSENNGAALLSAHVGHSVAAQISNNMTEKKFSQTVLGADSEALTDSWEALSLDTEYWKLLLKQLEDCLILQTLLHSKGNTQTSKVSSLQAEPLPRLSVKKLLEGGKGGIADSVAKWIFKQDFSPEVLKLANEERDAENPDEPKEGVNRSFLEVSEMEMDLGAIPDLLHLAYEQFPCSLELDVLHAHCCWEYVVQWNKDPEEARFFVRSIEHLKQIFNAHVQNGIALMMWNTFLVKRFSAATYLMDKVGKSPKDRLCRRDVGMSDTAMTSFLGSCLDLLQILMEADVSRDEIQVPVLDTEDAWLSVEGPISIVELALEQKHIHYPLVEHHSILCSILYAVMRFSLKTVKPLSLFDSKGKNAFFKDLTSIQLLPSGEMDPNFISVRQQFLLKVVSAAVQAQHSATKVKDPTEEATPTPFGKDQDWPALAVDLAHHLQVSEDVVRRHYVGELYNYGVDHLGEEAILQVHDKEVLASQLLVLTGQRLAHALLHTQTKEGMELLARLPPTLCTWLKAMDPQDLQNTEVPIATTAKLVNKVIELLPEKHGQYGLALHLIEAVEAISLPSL
UniProt Q96D70: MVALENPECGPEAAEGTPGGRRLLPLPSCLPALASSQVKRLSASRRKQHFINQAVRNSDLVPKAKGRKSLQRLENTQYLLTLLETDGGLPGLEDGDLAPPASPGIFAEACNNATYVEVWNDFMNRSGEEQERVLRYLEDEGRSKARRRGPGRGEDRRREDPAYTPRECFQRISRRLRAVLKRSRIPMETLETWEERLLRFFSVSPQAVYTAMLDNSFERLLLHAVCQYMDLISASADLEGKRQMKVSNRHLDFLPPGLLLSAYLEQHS

Columns and labels:
Assay in all cases: log2 fold change, soluble protein after heating vs DMSO (PISA); higher = thermal stabilisation; K562 cells, 10 uM, 30 min; active = over 0.2 and 3.5 SD of the protein, either way, in both replicates (recomputed)
[1] = compound: CN1CCN(CCOc2cc(OC3CCOCC3)c3c(Nc4c(Cl)ccc5c4OCO5)ncnc3c2)CC1 [saracatinib]
Summary of the method: (§1)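 Values are thermal stability changes relative to control samples and are taken from duplicates. They are stated as log2 fold changes. Before quantification by TMTpro 16plex LC-MS/MS with equalised channel sums, K562 cells at 2×10^6 cells/mL were treated with 10 μM compound for 30 min, heated in aliquots for 3 min across 48°C-58°C, pooled, extracted in PBS with 0.5% NP-40 at 4°C, and centrifuged at 21,000xg for 90 min to give the soluble supernatant.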

[2] = compound: CN1CCN(c2nc(C3=C(c4c[nH]c5ccccc45)C(=O)NC3=O)c3ccccc3n2)CC1 [sotrastaurin]
Summary of the method: as §1

[3] = compound: CN1CCc2c(c3ccccc3n2Cc2ccc(C(=O)NO)cc2)C1 [Tubastatin A]
Summary of the method: as §1

[4] = compound: CNC(=O)C1=CC=CC=C1NC2=NC(=NC=C2Cl)NC3=C(C=C(C=C3)N4CCOCC4)OC
Summary of the method: as §1

[5] = compound: CNC(=O)c1ccc(Nc2ncc(C(F)(F)F)c(NCc3nccnc3N(C)S(C)(=O)=O)n2)cc1 [defactinib]
Summary of the method: as §1

[6] = compound: CNCc1ccc(-c2[nH]c3cc(F)cc4c3c2CCNC4=O)cc1 [rucaparib]
Summary of the method: as §1

[7] = compound: CNc1nc(-c2ccc3c(N)n[nH]c3c2)cc(N2C[C@@H](C(=O)NC3CCCCC3)CC[C@H]2C)n1
Summary of the method: as §1

[8] = compound: COC(=O)N[C@@H](C)CNc1nccc(-c2cn(C(C)C)nc2-c2cc(Cl)cc(NS(C)(=O)=O)c2F)n1 [encorafenib]
Summary of the method: as §1

[9] = compound: COC(=O)[C@H](CCSC)NC(=O)C1=C(C=C(C=C1)NC[C@H](CS)N)C2=CC=CC=C2
Summary of the method: as §1

[10] = compound: COC1=CC=C(C=C1)CN2C=CC3=C2C=C(C=C3)C(=O)NO
Summary of the method: as §1

[11] = compound: CON(C)C(=O)N1N=C(c2cc(F)ccc2F)S[C@@]1(CCCN)c1ccccc1 [filanesib]
Summary of the method: as §1

[12] = compound: CO[C@H]1C[C@@H]2CC[C@@H](C)[C@@](O)(O2)C(=O)C(=O)N2CCCC[C@H]2C(=O)O[C@H]([C@H](C)C[C@@H]2CC[C@H](n3cnnn3)[C@H](OC)C2)CC(=O)[C@H](C)/C=C(\C)[C@@H](O)[C@@H](OC)C(=O)[C@H](C)C[C@H](C)/C=C/C=C/C=C/1C [zotarolimus]
Summary of the method: as §1

[13] = compound: COc1cc(C(=O)O)ccc1NC(=O)[C@@H]1N[C@@H](CC(C)(C)C)[C@](C#N)(c2ccc(Cl)cc2F)[C@H]1c1cccc(Cl)c1F [idasanutlin]
Summary of the method: as §1

[14] = compound: COc1cc(Nc2ncc3c(n2)-c2ccc(Cl)cc2C(c2c(F)cccc2OC)=NC3)ccc1C(=O)O [alisertib]
Summary of the method: as §1

[15] = compound: COc1cc2nc(-c3cc(F)ccc3O)nc(N[C@@H]3CNC[C@H]3C(C)(C)O)c2cc1OC
Summary of the method: as §1

[16] = compound: COc1cc2ncnc(Nc3ccc(F)c(Cl)c3)c2cc1OCCCN1CCOCC1 [gefitinib]
Summary of the method: as §1

[17] = compound: COc1cccc2cc(-c3nc([C@H]4CC[C@H](C(=O)O)CC4)n4ncnc(N)c34)[nH]c12
Summary of the method: as §1

[18] = compound: CS(=O)(=O)CCNCc1ccc(-c2ccc3ncnc(Nc4ccc(OCc5cccc(F)c5)c(Cl)c4)c3c2)o1 [lapatinib]
Summary of the method: as §1

[19] = compound: CS(=O)(=O)N1CCN(Cc2cc3nc(-c4cccc5[nH]ncc45)nc(N4CCOCC4)c3s2)CC1 [pictilisib]
Summary of the method: as §1

RAVER1 (UniProt E9PAU2)
log2 fold change [1]: inactive: -0.086
log2 fold change [2]: inactive: -0.376
log2 fold change [3]: inactive: 0.413
log2 fold change [4]: inactive: -0.069
log2 fold change [5]: inactive: -0.322
log2 fold change [6]: inactive: -0.186
log2 fold change [7]: inactive: -0.087
log2 fold change [8]: inactive: 0.105
log2 fold change [9]: inactive: -0.065
log2 fold change [10]: inactive: 0.032
log2 fold change [11]: inactive: -0.244
log2 fold change [12]: inactive: 0.258
log2 fold change [13]: inactive: 0.024
log2 fold change [14]: inactive: 0.372
log2 fold change [15]: inactive: -0.898
log2 fold change [16]: inactive: 0.082
log2 fold change [17]: inactive: -0.099
log2 fold change [18]: inactive: 0.049
log2 fold change [19]: inactive: -0.002

RABAC1 (UniProt Q9UI14)
log2 fold change [1]: inactive: 0.066
log2 fold change [2]: inactive: 0.012
log2 fold change [3]: inactive: 0.045
log2 fold change [4]: inactive: 0.004
log2 fold change [5]: inactive: 0.077
log2 fold change [6]: inactive: -0.017
log2 fold change [7]: inactive: -0.089
log2 fold change [8]: inactive: -0.049
log2 fold change [9]: inactive: -0.02
log2 fold change [10]: inactive: -0.07
log2 fold change [11]: inactive: -0.105
log2 fold change [13]: inactive: -0.043
log2 fold change [14]: inactive: -0.013
log2 fold change [15]: inactive: -0.032
log2 fold change [16]: inactive: 0.006
log2 fold change [17]: inactive: 0.056
log2 fold change [18]: inactive: 0.001
log2 fold change [19]: inactive: 0.03

RBIS (UniProt Q8N0T1)
log2 fold change [1]: inactive: 0.054
log2 fold change [2]: inactive: -0.002
log2 fold change [3]: inactive: 0.037
log2 fold change [4]: inactive: -0.026
log2 fold change [5]: inactive: 0.058
log2 fold change [6]: inactive: -0.048
log2 fold change [7]: inactive: -0.037
log2 fold change [8]: inactive: 0.022
log2 fold change [9]: inactive: 0.03
log2 fold change [10]: inactive: -0.069
log2 fold change [11]: inactive: 0.077
log2 fold change [12]: inactive: -0.075
log2 fold change [13]: inactive: 0.061
log2 fold change [14]: inactive: -0.053
log2 fold change [15]: inactive: -0.018
log2 fold change [16]: inactive: -0.056
log2 fold change [17]: inactive: -0.012
log2 fold change [18]: inactive: 0.012
log2 fold change [19]: inactive: -0.04

RARS2 (UniProt Q5T160)
log2 fold change [1]: inactive: 0.005
log2 fold change [2]: inactive: -0.101
log2 fold change [3]: inactive: -0.056
log2 fold change [4]: inactive: -0.035
log2 fold change [5]: inactive: -0.064
log2 fold change [6]: inactive: 0.003
log2 fold change [7]: inactive: -0.042
log2 fold change [8]: inactive: 0.026
log2 fold change [9]: inactive: -0.003
log2 fold change [10]: inactive: 0.009
log2 fold change [11]: active: -0.245
log2 fold change [12]: inactive: 0.007
log2 fold change [13]: inactive: -0.071
log2 fold change [14]: inactive: -0.016
log2 fold change [15]: inactive: -0.028
log2 fold change [16]: inactive: -0.013
log2 fold change [17]: inactive: 0.051
log2 fold change [18]: inactive: 0.051
log2 fold change [19]: inactive: -0.031

RAB3GAP2 (UniProt Q9H2M9)
log2 fold change [1]: inactive: -0.111
log2 fold change [2]: inactive: -0.195
log2 fold change [3]: inactive: 0.058
log2 fold change [4]: inactive: 0.017
log2 fold change [5]: inactive: -0.064
log2 fold change [6]: inactive: 0.205
log2 fold change [7]: inactive: 0.039
log2 fold change [8]: inactive: 0.189
log2 fold change [9]: inactive: -0.089
log2 fold change [10]: inactive: 0
log2 fold change [11]: inactive: 0.049
log2 fold change [12]: inactive: 0.101
log2 fold change [13]: inactive: 0.01
log2 fold change [14]: inactive: -0.056
log2 fold change [15]: inactive: 0.009
log2 fold change [16]: inactive: 0.017
log2 fold change [17]: inactive: -0.103
log2 fold change [18]: inactive: 0.038
log2 fold change [19]: inactive: -0.027

R3HDM4 (UniProt Q96D70)
log2 fold change [1]: inactive: 0.095
log2 fold change [2]: inactive: -0.007
log2 fold change [3]: inactive: 0.281
log2 fold change [4]: inactive: 0.002
log2 fold change [5]: inactive: 0.019
log2 fold change [6]: inactive: 0.034
log2 fold change [7]: inactive: 0.057
log2 fold change [8]: inactive: 0.065
log2 fold change [9]: inactive: 0.035
log2 fold change [11]: inactive: -0.048
log2 fold change [13]: inactive: -0.029
log2 fold change [14]: inactive: -0.328
log2 fold change [15]: inactive: 0.101
log2 fold change [16]: inactive: -0.275
log2 fold change [17]: inactive: 0.065
log2 fold change [18]: inactive: -0.072
